Experimental findings from paper PMC7819943, “Rice protein-binding microarrays: a tool to detect cis-acting elements near promoter regions in rice” are described below.

Chains of the proteins cited; added tags and fusions are not shown.
UniProt Q0JBA9, entry or part of it: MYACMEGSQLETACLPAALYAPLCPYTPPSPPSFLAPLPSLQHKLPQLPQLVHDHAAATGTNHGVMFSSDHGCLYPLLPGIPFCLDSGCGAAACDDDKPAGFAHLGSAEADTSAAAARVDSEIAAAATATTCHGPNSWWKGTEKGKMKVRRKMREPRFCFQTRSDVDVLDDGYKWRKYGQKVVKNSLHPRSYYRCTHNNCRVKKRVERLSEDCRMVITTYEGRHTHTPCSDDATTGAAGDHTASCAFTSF

This is one part of the list.

In this assay the target is OsWRKY34 (Oryza sativa, UniProt Q0JBA9 1-250). Description: protein-binding microarray (RPBM); PBS, 2% BSA, 51.3 ng/ul salmon testes DNA, 50 uM zinc acetate, 200 nM TF, 25 C, 1 h; high values mean tight binding. Conditions: protein: recombinant; tags: N-terminal polyhistidine and DsRed monomer fusion (pET32a); label: CyDye5-dUTP incorporated in the synthesized complementary strand; 3' TTTTT single-stranded linker to array surface; dsDNA, one strand shown. The essentials:
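In PBS with 2% BSA, salmon testes DNA and 50 µM zinc acetate, 200 nM protein was incubated on a custom Agilent array at 25 °C for 1 h and then washed off. The array had been made double-stranded by primer extension with Cy5-dUTP and blocked with 2% BSA. The proteins were transcription factors fused N-terminally to polyhistidine and DsRed, expressed in E. coli BL21-CodonPlus and purified on Ni–NTA. The binding signal is per-feature fluorescence intensity (arbitrary units) from an Axon 4000B scanner.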
For “TTCTTCCTTTCTCTGTGTTTGTTTGTTTCCAGTTGCCACTCGGAGTCACCTAGTGCAG”, the binding signal is 10000 fluorescence intensity (a.u.). Turning to “TCCTGGCCTATCTGTTCAGGTGCAGAATGCACTAGTTTCACGGAGTCACCTAGTGCAG”, the binding signal is 8260 fluorescence intensity (a.u.).

Turning to “TGTGGTTACTGTGTCGTTACTGTCTATATACCTCCCTGTTCGGAGTCACCTAGTGCAG”, the binding signal is 13000 fluorescence intensity (a.u.). “CCCATTTTTTGTCAATTGAACTGATGGCCATGTTTTCAACCGGAGTCACCTAGTGCAG”: the binding signal was 9750 fluorescence intensity (a.u.). On to “AAAACAATTTCCTTTTGGGGTGGTTCATCTGTTGATCACTCGGAGTCACCTAGTGCAG”, for which the binding signal was 8192 fluorescence intensity (a.u.). On to “CCGTTGACTTTTTAGTACATGTTTAACCGTTCGTCTTATTCGGAGTCACCTAGTGCAG”, for which the binding signal is 38600 fluorescence intensity (a.u.).

In the case of “CTTTGTCCCGCGATCCCGGCGGTGCTCCGTCCATAGCTCTCGGAGTCACCTAGTGCAG”, the binding signal is 12200 fluorescence intensity (a.u.). The result for “AGATTTTTCTTTTACCAGTTTAAACTGTTTAGCTGTATACCGGAGTCACCTAGTGCAG” reads 8300 fluorescence intensity (a.u.). As to “TCCTTTTTTTTGGGTGCTTTTCTTTTGTATAGCACTGTACCGGAGTCACCTAGTGCAG”, the binding signal was 65500 fluorescence intensity (a.u.).

Take “CTCCGCCTCGCGCCGTTGTCGCCGTCGCCTCGCGCCGCCACGGAGTCACCTAGTGCAG”: the binding signal is 10100 fluorescence intensity (a.u.). Turning to “TTGCAGTTCTCTGAATTTTTCTGGTGTTGGTTCAACACCACGGAGTCACCTAGTGCAG”, the binding signal is 10000 fluorescence intensity (a.u.). On to “GGCGCCGGGGTGGGGTGGTGCTGGAGCCACCGGAGGAGCGCGGAGTCACCTAGTGCAG”, for which the binding signal was 9730 fluorescence intensity (a.u.).

In the case of “GAGGAGGTTGGGTTCTTGATCGGTGTCGGATTTTTGGTTGCGGAGTCACCTAGTGCAG”, the binding signal was 10800 fluorescence intensity (a.u.).

Consider “CGGCCCATGCTACAGGGGTGGGTTGGTGATGAATTCTCCGCGGAGTCACCTAGTGCAG”, for which the binding signal was 10500 fluorescence intensity (a.u.). The same measure for “CTATTTCATCGTCCCTTCTGCATTAGGCCTAAATTTCCCACGGAGTCACCTAGTGCAG”: 10100 fluorescence intensity (a.u.).

Take “CAACGATGGCATCTTCCCGGCGTCGATGGAGGGGCGGAACCGGAGTCACCTAGTGCAG”: the binding signal is 8080 fluorescence intensity (a.u.). Consider “CCTGCTGACTGGACCACTACCTGTGACCCTTGGGAACCTCCGGAGTCACCTAGTGCAG”, for which the binding signal is 10100 fluorescence intensity (a.u.).

“TTGTGAACTTTTGACTTTTGCAATTTCTTGACTTATACCTCGGAGTCACCTAGTGCAG”: the binding signal is 8700 fluorescence intensity (a.u.). The same measure for “TCCTACCCTTTTTTTTTTGTGTGTTTGTGACGACACGACACGGAGTCACCTAGTGCAG”: 8200 fluorescence intensity (a.u.); for “GTTGTACAATGTACTATGCATTTTCTGATTTTTACCCTCACGGAGTCACCTAGTGCAG”: 9050 fluorescence intensity (a.u.). The result for “CGCACCGTCGACTAGTCCCGTCCCGTCGCGCCGTTGCCTTCGGAGTCACCTAGTGCAG” reads 8590 fluorescence intensity (a.u.); that for “CATATCAGCAACACATATCAGTTCATCAATATTTCAGTACCGGAGTCACCTAGTGCAG”, 9480 fluorescence intensity (a.u.); that for “GTCACCCTTTTGTTTCGTTTTTCCATCAGCTAGTGCATTGCGGAGTCACCTAGTGCAG”, 9590 fluorescence intensity (a.u.). The same measure for “TCACCCTATGTTCCTGTGTTTTGTACTCTTTCGTAACAGCCGGAGTCACCTAGTGCAG”: 12900 fluorescence intensity (a.u.); for “CATTTTTGTTGGTTATTAGTTTTTAGGCCATTTTATTTACCGGAGTCACCTAGTGCAG”: 10300 fluorescence intensity (a.u.). Consider “CCTCCACCATCGCCACCACCTCCGCCTCGTTTCCATCGCCCGGAGTCACCTAGTGCAG”, for which the binding signal is 9340 fluorescence intensity (a.u.). The same measure for “CGGCTCGCTCAACCATACCACCTTTTCAAATTCATTTTTCCGGAGTCACCTAGTGCAG”: 11600 fluorescence intensity (a.u.); for “TCCACTGCACTTCATACCTTTTCGTCTGCTCTTTCTTCAGCGGAGTCACCTAGTGCAG”: 12100 fluorescence intensity (a.u.). The same measure for “ACCACCGCCGCCGCCGTCTTACTCTCTCTGTCTCGAGCTCCGGAGTCACCTAGTGCAG”: 8810 fluorescence intensity (a.u.); for “TTTGCTCTCATCACACATTCAATCACTCCATAAATTTTGACGGAGTCACCTAGTGCAG”: 9550 fluorescence intensity (a.u.). As for “TTCTGCTTGTGTTCGGTAGTCTACCATGTTGACTTGCCGGCGGAGTCACCTAGTGCAG”, the binding signal was 11700 fluorescence intensity (a.u.). “TTACACTTTCTCCTCCATCATGCGCTCATGGCCATCCATTCGGAGTCACCTAGTGCAG”: the binding signal was 8320 fluorescence intensity (a.u.).

As to “ATCCCTCCCTAACCCGTCTACTTGGCCGATAACCCGTCTCCGGAGTCACCTAGTGCAG”, the binding signal is 10900 fluorescence intensity (a.u.). The same measure for “CTATTTCCATGAAGCGTGTATGTCTTGTAAGTTGTGACGGCGGAGTCACCTAGTGCAG”: 9260 fluorescence intensity (a.u.); for “ACGCTGGTGATTTTTTTTTTCTTTTCACGTGGTACTGATTCGGAGTCACCTAGTGCAG”: 11300 fluorescence intensity (a.u.); for “GAAGTAGGGGTGACAATTTTCTCGGTGGGTGCAGGGTCCCCGGAGTCACCTAGTGCAG”: 9340 fluorescence intensity (a.u.).

Consider “CGAATCGTTTTTTTATAATGGTAGAGGTGGGAAATTTTTTCGGAGTCACCTAGTGCAG”, for which the binding signal is 8400 fluorescence intensity (a.u.).

On to “GCGGACCAACCAACCAATCACTCGCTCGCCGCCGGCCATGCGGAGTCACCTAGTGCAG”, for which the binding signal is 9090 fluorescence intensity (a.u.).

In the case of “TTGCACCGGTTTCAATAGTTCGGGAGTCGGGATATCCGAACGGAGTCACCTAGTGCAG”, the binding signal was 8190 fluorescence intensity (a.u.). The same measure for “TATGTTTGTTTTGTGTTGATAATATTGCTATATTTTTCTTCGGAGTCACCTAGTGCAG”: 10500 fluorescence intensity (a.u.); for “CCGCCTAGTCTCATTGGAAACCACCTCATTAGTCATCCCACGGAGTCACCTAGTGCAG”: 8680 fluorescence intensity (a.u.).

Regarding “TTCGGTTTGTATCAGCACTCCTGCATTTGGGTCATTCACTCGGAGTCACCTAGTGCAG”, the binding signal was 12000 fluorescence intensity (a.u.).
